In patent US20250361297A1, “ANTI- SIGLEC-15 BINDING MOLECULES AND METHODS OF USE” (ADAPTAM THERAPEUTICS, S.L., priority 2024, published 2025):
At least one compound was matched to its structure with a doubt left.

System: osteoclast activation
Experiment: Osteoclast activation in vitro (CTX-I in culture medium)
Assay type: cell-based
Settings: relative to baseline; control odanacatib 1 μM (FIG. 47)

SMILES: CC(C)(F)C[C@H](N[C@@H](c1ccc(-c2ccc(S(C)(=O)=O)cc2)cc1)C(F)(F)F)C(=O)NC1(C#N)CC1 [odanacatib, reference compound]
- effect on osteoclast activation (CTX-I): reduced activation
